# From the supplement of paper PMC11732987, “Enantioselective OTUD7B fragment discovery through chemoproteomics screening and high-throughput optimisation” (Communications Chemistry, 2025)
# The other results are listed elsewhere or left out. The data scatter; read single values as rough.
# Columns and labels:
# [1] = compound: ClCC(=O)N[C@@H]1CCCc2ccccc12; assay: log2 mean competition ratio of IA-DTB cysteine labelling (DMSO/compound) (log2 ratio); higher = stronger cysteine engagement by compound; conditions: treatment time: 4 h, cell line lysate: HEK293T
# Method: (§1)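 IA-DTB competitive cysteine chemoproteomics in HEK293T RIPA lysate. Lysates were treated with compound 29 or 30 at 50 or 200 µM for 4 h, then IA-DTB (500 µM, 1 h), trypsin-digested, NeutrAvidin-enriched and analysed by diaPASEF. Competition ratio = intensity DMSO / intensity compound (n=4 treated, n=64 DMSO); binding: mean log2 CR ≥ 1 and p ≤ 0.05 plus QC filters. Target is the cysteine site.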
# [2] = compound: ClCC(=O)N[C@H]1CCCc2ccccc12; assay: as above; conditions: treatment time: 4 h, cell line lysate: HEK293T
# Method: as §1
Target,log2 mean competition ratio ([1]; 50 µM),log2 mean competition ratio ([1]; 200 µM),log2 mean competition ratio ([2]; 50 µM),log2 mean competition ratio ([2]; 200 µM)
CIC C1420,-0.0779,0.0272,-0.0734,-0.0312
CNP C158 (UniProt P09543),0.173,0.0389,0.375,0.11
CLTCL1 C491 (UniProt P53675),0.106,-0.156,0.165,-0.426
CNNM4 C736 (UniProt Q6P4Q7),-0.0617,-0.562,0.471,-0.37
CHD4 C396,-0.223,-0.0764,-0.562,-0.0842
CLSPN C397 (UniProt Q9HAW4),-0.616,0.805,-0.305,0.459
CIAO1 C52 (UniProt O76071),-0.153,-0.146,-0.0233,-0.0423
COPA C673 (UniProt P53621),0.0085,-0.143,0.432,-0.0933
COMMD8 C32 (UniProt Q9NX08),-0.13,-0.0626,-0.013,-0.109
